## Results of single-concentration screens

Chains of the proteins cited; added tags and fusions are not shown.
UniProt P9WFT3, whole entry: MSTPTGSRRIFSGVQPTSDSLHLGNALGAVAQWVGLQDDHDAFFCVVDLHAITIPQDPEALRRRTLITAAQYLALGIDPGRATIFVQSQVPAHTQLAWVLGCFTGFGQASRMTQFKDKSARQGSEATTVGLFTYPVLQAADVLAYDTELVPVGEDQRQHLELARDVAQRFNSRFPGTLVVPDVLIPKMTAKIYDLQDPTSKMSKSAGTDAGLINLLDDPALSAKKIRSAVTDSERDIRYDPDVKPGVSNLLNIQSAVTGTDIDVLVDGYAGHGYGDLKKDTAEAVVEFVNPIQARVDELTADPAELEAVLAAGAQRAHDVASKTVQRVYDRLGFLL

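Tryptophan-tRNA ligase, Mycobacterium tuberculosis (UniProt P9WFT3). Enzyme assay of tryptophanyl-tRNA synthetase; the read-out is not stated. Tested at 10 µM. Higher most likely means stronger inhibition; the record gives no direction and few retests gave an IC50. Of about 65,000 compounds tested this way, about 64 (0.098%) reached 50% or more in at least one test.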

Each number is a percent effect as filed.
The controls that fix the scale are not given in the record; negative values are as filed.
The compounds are a random part of those screened.

With CNC(=O)CN1CC[C@H]2CN(C(=O)c3ccc(C)nc3)C[C@H]2C1 the screen gave 7.518%.
With Cc1nc(C)n(C2CCCN(C(=O)c3cccc4cn[nH]c34)C2)n1 (configuration not stated) the screen gave -1.709%.
With CCCc1ccc(S(=O)(=O)NC(=O)CCc2cscn2)cc1 the screen gave 2.007%.
With COc1ccc(-c2nc(CCNCc3ccncc3)co2)cc1 the screen gave 2.323%.
With CCOCc1ccccc1NC(=O)NCC(c1cnn(C)c1)N(C)C (configuration not stated) the screen gave -7.385%.
With O=C1CC2(CCN(Cc3ccc(-c4ccccc4)s3)C2)C(=O)N1 (configuration not stated) the screen gave 0.4989%.
With CCS(=O)(=O)NC1CCc2c(ccc(=O)n2CC2CC2)C1 (configuration not stated) the screen gave -0.6823%.
With CC(=O)N1CCC[C@H]1C(=O)NCCOc1cccc(Cl)c1 the screen gave 0.8793%.
With CCn1cc(NC(=O)NCC(O)CN2CCCCC2)cn1 (configuration not stated) the screen gave 1.642%.
With NCC1(c2cccc(C(F)(F)F)c2)CCCC1 the screen gave 4.44%.
With Cc1nnc(N2CCOC(C)(C(=O)NC3CCCC3)C2)c2ccccc12 (configuration not stated) the screen gave 0.6343%.
With Cc1nc(-c2ccsc2)ccc1C(=O)N(C)CC(F)(F)F the screen gave -2.419%.
With Cc1cccc(N2CC[C@@H]3[C@@H](CO[C@H]3CNC(=O)c3ccco3)C2)n1 the screen gave -1.623%.
With CC(C)c1nsc(NC2CC(=O)N(C(C)(C)C)C2)n1 (configuration not stated) the screen gave -3.673%.
With Cn1cnnc1C1CCCN(C(=O)c2ccccc2Cl)C1 (configuration not stated) the screen gave -0.07819%.
With O=C(C1CCCC1)N1C[C@@H]2CCN(c3cnccn3)C[C@@H]2C1 the screen gave -0.8292%.
With Cc1cccc(OCCC(=O)N2CCCN(CC(N)=O)CC2)c1C the screen gave 4.327%.
With COc1c(CNC2CCN(C(C)(C)C)CC2)c(C(C)C)nn1C the screen gave 2.047%.
With CC(NCCc1nccn1Cc1ccccc1)c1ccsc1 (configuration not stated) the screen gave -3.431%.
With COCCN1CCCC(C)(c2cc(O)[nH]n2)C1 (configuration not stated) the screen gave -0.2114%.
With Cc1nc(C2CCCN2Cc2nc(C3CC3)no2)no1 (configuration not stated) the screen gave -3.193%.
With NC(=O)c1csc(C(=O)N2CCCCC2Cn2cccn2)c1 (configuration not stated) the screen gave -3.207%.
With CCCc1nnc(NCc2ccc(OC)c(C#N)c2)o1 the screen gave 2.91%.
With CN(C)c1ccc(NC(=O)N2CCc3sccc3C2)cn1 the screen gave -4.238%.
With CCOCCCNC(=O)C(NC(=O)Cc1cccs1)c1ccc(C)cc1 (configuration not stated) the screen gave -2.931%.
With Cc1noc(C)c1-c1nc(N(C)C)ncc1-c1cnccn1 the screen gave -0.6377%.
With CC(=O)Nc1ccc(CNC2CCCSC2)cc1 (configuration not stated) the screen gave 14.03%.
With COC(=O)Cn1c(C)cc(=O)c2cc(F)ccc21 the screen gave 3.537%.
With Cc1nn(CCNC(=O)c2cc(C3CC3)[nH]n2)c(C)c1Cl the screen gave 5.528%.

For reference, 3 entries once more:

{"structure": "COC(=O)Cn1c(C)cc(=O)c2cc(F)ccc21", "percent effect": 3.537}
{"structure": "Cc1noc(C)c1-c1nc(N(C)C)ncc1-c1cnccn1", "percent effect": -0.6377}
{"structure": "Cc1nnc(N2CCOC(C)(C(=O)NC3CCCC3)C2)c2ccccc12", "stereo": "configuration not stated", "percent effect": 0.6343}

From ChEMBL document CHEMBL3988442, “University of Dundee, Small-Polar-MMV Screening Library” (2021).